The subject of the data set is mouth (panel of three flavorists). The data set is described as follows: Sensory evaluation of cooling strength by a panel of three flavorists. The class given is in vivo. Here is the method: The sensory properties of crystalline MLL and liquid products that contain MLL (from Examples 1-5, above) are evaluated by a panel of three flavorists. The standard method involves holding an aqueous solution containing 20 ppm of coolant in the mouth for 30 seconds, then spitting it out and observing and quantifying the cooling effect when compared with a set of reference standards. Based on their cooling strength, the samples are scored on a scale of 1 to 10, with 10 being the strongest. Samples used as reference standards are to monomenthyl glutarate (3.5 on this scale), l-menthyl lactate (4.5) and N-ethyl-3-p-menthane carboxamide, i.e., WS-3 (10). Several coolant “cocktails,” i.e., liquid coolant-mixtures, are prepared, and their sensory properties are evaluated as in Example 6. The compositions and results appear in Table 2.

Structures are written as SMILES.

The record followed here is patent US7968744B2, “Physiological coolants based on lactoyl esters of menthyl lactate” (Renessenz, LLC, priority 2007, dated 2011).

For `CC(C)[C@@H]1CC[C@@H](C)C[C@H]1OC(=O)[C@H](C)OC(=O)[C@H](C)O` [Example 6, l-menthyl L-lactoyl-L-lactate], under “aqueous solution containing 20 ppm of coolant held in the mouth for 30 seconds, Table 1”, the Perception result is recorded as “clean, smooth”. In addition, the “Cooling effect, perception (in words)” value (sensory evaluation) is on record as “clean, smooth cooling effect”.
